Reference: article PMC8760688
No constants are given. Whether binding was seen depends on the method and setting. Binding seen in cells or lysates may run through a third protein. Some entries that bind do so weakly or less than the wild type.

Sequences of proteins named here, by UniProt entry; tags and fusion partners are left off.
UniProt P51858: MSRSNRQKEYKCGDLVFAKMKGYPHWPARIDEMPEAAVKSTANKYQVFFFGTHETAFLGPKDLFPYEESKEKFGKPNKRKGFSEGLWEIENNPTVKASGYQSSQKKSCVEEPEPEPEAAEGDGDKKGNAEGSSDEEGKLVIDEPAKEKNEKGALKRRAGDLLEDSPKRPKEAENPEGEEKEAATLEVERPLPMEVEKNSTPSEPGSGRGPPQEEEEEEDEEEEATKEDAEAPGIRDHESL
UniProt P05412: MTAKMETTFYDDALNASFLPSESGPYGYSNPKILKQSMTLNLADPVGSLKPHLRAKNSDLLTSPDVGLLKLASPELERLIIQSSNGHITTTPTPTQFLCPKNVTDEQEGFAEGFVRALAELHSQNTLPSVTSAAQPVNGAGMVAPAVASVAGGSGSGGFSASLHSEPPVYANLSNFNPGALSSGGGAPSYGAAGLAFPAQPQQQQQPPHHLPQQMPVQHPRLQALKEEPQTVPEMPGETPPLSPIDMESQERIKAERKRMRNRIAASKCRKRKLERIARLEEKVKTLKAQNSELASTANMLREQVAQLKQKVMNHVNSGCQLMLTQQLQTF

Target: hepatoma-derived growth factor (UniProt P51858)
Experiment: co-IP; Co-IP assay; cells, antibodies and conditions not told in this correction; three independent experiments

binding: binds
Substance: c-Jun (from UniProt P05412 1-331)
